PubChem BioAssay AID493246, Drosophila RNAi Screening Center, 2011
Assay: 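Genome-wide search for dsRNAs that reduce cell number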 (primary screen). Cells: Drosophila Kc and S2R+ cells. Reagents: long dsRNA against Drosophila genes. Measured: 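Cell number per well after knock-down, printed as raw plate values; calls were based on per-plate z-scores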. Reading the numbers: Kc cell number and S2R+ cell number: higher = more cells remaining. Call rule: 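Counted as a hit if cell number falls by a z-score of at least 3 within its plate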.
The screen tested about 21,000 reagents; shown is an unselected part of those with a known target gene and a result. Over the whole deposit, 429 (2%) were called active. 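Values are raw and not normalised between plates; calls rest on per-plate z-scores that were not deposited.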 A number with no mark means an inactive call. The numbers tell different reagents against one gene apart. Not given: the amount of reagent, the time to read-out.

no.	gene knocked down	dsRNA no.	Kc cell number, rep 1	Kc cell number, rep 2	S2R+ cell number, rep 1	S2R+ cell number, rep 2
1	CG7992	1	1.45e6	1.49e6	1.08e6	1.14e6
2	CG11076	1	1.48e6	1.51e6	1.11e6	1.21e6
3	Vps39	1	1.65e6	1.68e6	1.34e6	1.40e6
4	rst	1	1.11e6	1.23e6	1.07e6	1.14e6
5	rst	2	1.44e6	1.42e6	1.06e6	1.15e6
6	Trim9	1	1.60e6	1.68e6	1.39e6	1.62e6
7	CG5614	1	1.27e6	1.36e6	1.01e6	1.10e6
8	insc	1	1.66e6	1.73e6	1.27e6	3.23e5
9	TfIIA-S-2	1	1.49e6	1.47e6	1.08e6	1.15e6
10	CG15144	1	1.50e6	1.56e6	1.24e6	1.36e6
11	Mdr49	1	1.18e6	1.49e6	8.88e5	8.93e5
12	Mdr50	1	1.68e6	1.95e6	1.50e6	1.68e6
13	CG15635	1	1.59e6	1.55e6	1.09e6	1.17e6
14	CG1695	1	1.43e6	1.52e6	1.07e6	1.13e6
15	CG15145	1	1.46e6	1.50e6	1.25e6	1.43e6
16	mus302	1	1.31e6	1.47e6	1.24e6	1.36e6
17	CG10934	1	1.28e6	1.36e6	1.10e6	1.18e6
18	CG11807	1	1.12e6	1.10e6	7.13e5	6.05e5
19	CG32762	1	1.13e6	1.65e6	1.06e6	1.21e6
20	CG14718	1	1.71e6	1.88e6	1.35e6	1.44e6
21	CG14443	1	1.52e6	1.52e6	1.04e6	1.11e6
22	CG15406	1	1.57e6	1.56e6	1.08e6	1.23e6
23	Ir68b	1	1.24e6	1.26e6	1.45e6	1.53e6
24	Smyd5	1	1.39e6	1.41e6	9.74e5	1.10e6
25	Eig71Ea	1	1.41e6	1.51e6	1.22e6	1.40e6
26	eIF2A	1	1.59e6	1.56e6	1.37e6	1.31e6
27	lov	1	1.62e6	1.55e6	1.34e6	1.35e6
28	lov	2	1.61e6	1.54e6	1.32e6	1.26e6
29	Pof	1	1.44e6	1.61e6	1.15e6	1.25e6
30	CG3119	1	1.67e6	1.58e6	1.02e6	1.21e6
31	CG7382	1	1.23e6	1.25e6	5.17e5	8.13e5
32	Galphao	1	1.50e6	1.56e6	1.22e6	1.23e6
33	Atg12	1	1.52e6	1.80e6	1.33e6	1.39e6
34	eco	1	1.31e6	1.35e6	1.01e6	1.02e6
35	CG31368	1	1.50e6	1.60e6	1.34e6	1.46e6
36	CG31368	2	1.45e6	1.56e6	1.22e6	1.26e6
37	GILT2	1	1.62e6	1.69e6	1.28e6	1.37e6
38	CG4558	1	5.79e5		9.11e5	
39	wtrw	1	1.58e6	1.66e6	1.16e6	1.29e6
40	wtrw	2	1.46e6	1.70e6	9.48e5	1.08e6

2 entries already listed, arranged by “S2R+ cell number, rep 1”, ascending:
gene knocked down	dsRNA no.	Kc cell number, rep 1	Kc cell number, rep 2	S2R+ cell number, rep 1	S2R+ cell number, rep 2
CG14443	1	1.52e6	1.52e6	1.04e6	1.11e6
CG15406	1	1.57e6	1.56e6	1.08e6	1.23e6
